Measurements taken from PubChem BioAssay AID1259415 (National Center for Advancing Translational Sciences (NCATS), 2018).
Out of some 410,000 compounds screened, about 18,000 (4.4%) were called active. The shares of active, inactive and inconclusive entries below differ from those in the screen. No stated cut-off is given here; in the data, active means activity change below about -60%; inconclusive means no clear call, values can overlap the other calls; inactive means above about -39%.

Test: qHTS Assay for inhibitors of the human cytomegalovirus (HCMV)
Settings: HFF cells, HCMV-luciferase reporter, 72 h; at 57.5 µM; stronger effect = lower value
In short: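 Steps: HFFs plated, 16 h 37C; compounds added; HCMV-luciferase added to MOI 1 PFU/cell; 72 h 37C; OneGlo reagent, 5 min room temperature; luminescence read, normalized to controls.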
On the % scale 0 is the no-effect control and ±100 the full control effect.

Q: Which activity change, negative = inhibition does the source give for `CCOc1c(Cl)cc(CNC(C)C(O)c2ccccc2)cc1OC` (centres undefined) here?
A: inconclusive: 0%

Q: For `O=C(OCc1ccccc1C(F)(F)F)c1cc([N+](=O)[O-])ccc1N1CCOCC1`, which activity change, negative = inhibition is on record?
A: inactive: -11.9%

Q: Which activity change, negative = inhibition does the source give for `Cc1cccc(N2CCN(C(=O)NC3CCCCC3)CC2C)c1` (centres undefined) here?
A: inconclusive: -52.8%

Q: For `COc1ccc(CNCCC(c2ccc(F)cc2)c2ccc(OC(C)C)cc2)cc1OC` (centres undefined), which activity change, negative = inhibition is on record?
A: active: -97.1%

Q: Which activity change, negative = inhibition does the source give for `S=C(NC1CCCCC1)N1CCC(C2C=NC=N2)CC1` (centres undefined) here?
A: inconclusive: -48.7%

Q: For `CCOC(=O)c1c(C)[nH]c(C)c1S(=O)(=O)N1CCC(C(=O)Nc2ccc(F)cc2F)CC1`, which activity change, negative = inhibition is on record?
A: inactive: -4.84%

Q: For `Cc1ccc(NC(=O)CCCNC(=O)c2ccc(Cl)cc2)c(Br)c1`, which activity change, negative = inhibition is on record?
A: inconclusive: -44.1%

Q: For `Cn1c(=O)oc2cc(S(=O)(=O)N3CCOCC3)ccc21`, which activity change, negative = inhibition is on record?
A: inactive: -19.7%

Q: With `Cc1cccc(-c2noc(CNC(=O)Nc3ccc(F)cc3)n2)c1` as the compound, how does the activity change, negative = inhibition read?
A: inconclusive: -44.4%

Q: Which activity change, negative = inhibition does the source give for `COC(=O)c1sccc1NC(=S)NCc1ccc(Cl)cc1` here?
A: inconclusive: -51.8%

Q: Which activity change, negative = inhibition does the source give for `COc1ccccc1CNC(=O)C1CCCN(c2nn3cc(-c4ccc(F)cc4)nc3s2)C1` (centres undefined) here?
A: inconclusive: 0%

Q: For `O=C(/C=C/c1ccc(Cl)cc1)N1CCN(c2ccc([N+](=O)[O-])c(N3CCOCC3)c2)CC1`, which activity change, negative = inhibition is on record?
A: inactive: -38.4%

Q: Which activity change, negative = inhibition does the source give for `COc1ccccc1N1CCN(C(=O)c2ccc(COc3cccc4c3OC(C)(C)C4)cc2)CC1` here?
A: inactive: -16.5%

Q: With `COc1cccc(CN(C)C(=O)c2ccc(OCC(=O)Nc3cccc(C(F)(F)F)c3)c(OC)c2)c1` as the compound, how does the activity change, negative = inhibition read?
A: active: -86.3%

Q: With `Cn1nc(C(C)(C)C)cc1C(=O)N1CCCC(c2cc(C(=O)Nc3ccccc3Cl)no2)C1` (centres undefined) as the compound, how does the activity change, negative = inhibition read?
A: inconclusive: -59.5%

Q: For `CCOc1ccccc1CNc1ncnc2c1nc1n2CCCC1`, which activity change, negative = inhibition is on record?
A: active: -81.2%

Q: For `Cc1cc(C)c(CN2CCC(n3nccc3NC(=O)CCOc3ccccc3)CC2)cc1C`, which activity change, negative = inhibition is on record?
A: inconclusive: -50.8%

Q: For `c1ccc(-c2nccc(-c3ccco3)n2)nc1`, which activity change, negative = inhibition is on record?
A: inconclusive: -57.6%

Q: With `CCCC(=O)Nc1cc2c3c(c1)CC(=O)N3CCC2` as the compound, how does the activity change, negative = inhibition read?
A: inconclusive: -46%

Q: With `CCOC(=O)C1=CCN(S(=O)(=O)c2ccc(C)cc2)C1c1ccc(Br)cc1` (centres undefined) as the compound, how does the activity change, negative = inhibition read?
A: inconclusive: -48.7%

Q: Which activity change, negative = inhibition does the source give for `COc1ccc(NC(=S)NCCCN2CCCC2)cc1Cl` here?
A: inconclusive: -41%

Q: For `COC(=O)c1c(-c2ccccc2)noc1C`, which activity change, negative = inhibition is on record?
A: active: -76.2%

Q: With `CN1CCN(C(=O)/C(=C/c2cn(S(=O)(=O)N(C)C)c3ccccc23)NC(=O)c2ccccc2F)CC1` as the compound, how does the activity change, negative = inhibition read?
A: inactive: 14.1%

Q: For `COc1ccc(NC(=O)Nc2ccccc2)cc1S(=O)(=O)N1CCCCC1`, which activity change, negative = inhibition is on record?
A: inconclusive: -54.8%
